PubChem BioAssay AID1259323 | Peter MacCallum Cancer Centre | 2017
Test: 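Kinase siRNA screen linking the PAR2 receptor to the TRPV4 channel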 (primary screen). Cells: human HEK293 cells stably carrying inducible TRPV4. Reagents: siRNA pool against human genes. Treatment: PAR2 activation; agonist identity and dose not given. Measured: 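Real-time Fura-2 calcium after PAR2 activation; early peak and later plateau each as % of mock-transfected wells on the plate, mean of two plates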. Scale: TRPV4 plateau calcium, % of mock: higher = stronger sustained TRPV4 calcium entry than mock; PAR2 peak calcium, % of mock: higher = stronger early PAR2 calcium response than mock. Hit rule: 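Active if plateau calcium is under 90% of mock and early peak calcium stays over 79% of mock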.
The whole screen tested 715 reagents; below is a part drawn at random. Of all reagents, 91 (13%) got an active call. 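Active pools lower the sustained TRPV4 phase but spare the early PAR2 peak; PAR2 agonist and dose are not stated; pools repeat across wells.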 Reagent sequences are not shown. Not stated in the record: the amount of reagent, the time to read-out.

gene knocked down | TRPV4 plateau calcium, % of mock | PAR2 peak calcium, % of mock | call
MAGI1 (GeneID 9223) | 102 | 99.9 | inactive
NAGK (GeneID 55577) | 93.9 | 95.3 | inactive
PRKCA (GeneID 5578) | 114 | 93.9 | inactive
COMMD3 (GeneID 23412) | 88.1 | 90.9 | active
MINK1 (GeneID 50488) | 113 | 106 | inactive
EIF2AK1 (GeneID 27102) | 97.8 | 97.6 | inactive
EPHA10 (GeneID 284656) | 96.6 | 98.6 | inactive
STK11 (GeneID 6794) | 85.8 | 81.8 | active
DBF4 (GeneID 10926) | 99.1 | 105 | inactive
CDKN1B (GeneID 1027) | 96.2 | 98.9 | inactive
MAPK15 (GeneID 225689) | 98.4 | 100 | inactive
PRKD3 (GeneID 23683) | 102 | 98.3 | inactive
CAMK1G (GeneID 57172) | 95.9 | 90.6 | inactive
NEK1 (GeneID 4750) | 91.3 | 93.7 | inactive
TLK1 (GeneID 9874) | 108 | 99.2 | inactive
MOK (GeneID 5891) | 109 | 108 | inactive
NME4 (GeneID 4833) | 102 | 103 | inactive
SYK (GeneID 6850) | 97.7 | 99.3 | inactive
WNK1 (GeneID 65125) | 91.3 | 92.3 | inactive
LCK (GeneID 3932) | 107 | 97.2 | inactive
PI4K2B (GeneID 55300) | 95 | 79.3 | inactive
RPS6KA4 (GeneID 8986) | 93.4 | 95.9 | inactive
ADCK1 (GeneID 57143) | 95.4 | 101 | inactive
XYLB (GeneID 9942) | 105 | 106 | inactive
MAP4K5 (GeneID 11183) | 106 | 104 | inactive
PIK3C2B (GeneID 5287) | 88.8 | 87.3 | active
CDC42BPB (GeneID 9578) | 104 | 99.7 | inactive
TBK1 (GeneID 29110) | 102 | 100 | inactive
PRKCQ (GeneID 5588) | 98.5 | 98.6 | inactive
SGK2 (GeneID 10110) | 105 | 108 | inactive
MAPK1 (GeneID 5594) | 119 | 103 | inactive
AGK (GeneID 55750) | 108 | 97.9 | inactive
TRIM27 (GeneID 5987) | 95 | 95.8 | inactive
FGR (GeneID 2268) | 124 | 111 | inactive
GRK4 (GeneID 2868) | 95.4 | 99.6 | inactive
HASPIN (GeneID 83903) | 108 | 103 | inactive
DGKK (GeneID 139189) | 75.4 | 67.5 | inactive
PACSIN1 (GeneID 29993) | 115 | 106 | inactive
AXL (GeneID 558) | 101 | 99.9 | inactive
DLG1 (GeneID 1739) | 108 | 100 | inactive
CAMKV (GeneID 79012) | 125 | 108 | inactive
EIF2AK3 (GeneID 9451) | 94.5 | 94.3 | inactive
PIP4K2C (GeneID 79837) | 111 | 104 | inactive
ALK (GeneID 238) | 106 | 102 | inactive
PTK2B (GeneID 2185) | 80.9 | 72.2 | inactive
CKMT1B (GeneID 1159) | 96.5 | 96.6 | inactive
ROCK1 (GeneID 6093) | 105 | 97.3 | inactive
BCR (GeneID 613) | 102 | 97.2 | inactive
TRPM6 (GeneID 140803) | 96.5 | 96.8 | inactive
PKN2 (GeneID 5586) | 98.8 | 96.9 | inactive
PRPS1 (GeneID 5631) | 118 | 104 | inactive
FN3KRP (GeneID 79672) | 104 | 98.5 | inactive
SRP72 (GeneID 6731) | 87.2 | 107 | active
CAMK2B (GeneID 816) | 112 | 104 | inactive
CSK (GeneID 1445) | 97.1 | 95.4 | inactive
CDK1 (GeneID 983) | 86.3 | 93.5 | active
ERBB3 (GeneID 2065) | 112 | 109 | inactive
SIK2 (GeneID 23235) | 70.9 | 79.5 | active
IKBKB (GeneID 3551) | 93.1 | 93.9 | inactive
PGK2 (GeneID 5232) | 98.6 | 96.6 | inactive
MPP2 (GeneID 4355) | 101 | 89.8 | inactive
KSR2 (GeneID 283455) | 122 | 104 | inactive
MAP2K1 (GeneID 5604) | 98 | 96.9 | inactive
ADK (GeneID 132) | 101 | 100 | inactive
CSNK1E (GeneID 1454) | 87.8 | 92.3 | active
MAP4K3 (GeneID 8491) | 97.8 | 101 | inactive
GUCY2EP (GeneID 390226) | 104 | 105 | inactive
CDKN2D (GeneID 1032) | 109 | 103 | inactive
CDKN2B (GeneID 1030) | 104 | 103 | inactive
HUNK (GeneID 30811) | 88.3 | 87.8 | active
PIK3CB (GeneID 5291) | 91.5 | 101 | inactive
CAMK2A (GeneID 815) | 101 | 98.2 | inactive
PIM3 (GeneID 415116) | 94.9 | 96.6 | inactive
DYRK2 (GeneID 8445) | 106 | 104 | inactive
GK (GeneID 2710) | 86.3 | 71.7 | inactive
CDK12 (GeneID 51755) | 109 | 97.9 | inactive
EPHA3 (GeneID 2042) | 106 | 102 | inactive
RPS6KL1 (GeneID 83694) | 105 | 105 | inactive
PRKAG2 (GeneID 51422) | 94 | 95.1 | inactive
TNK1 (GeneID 8711) | 99.8 | 96.4 | inactive
CDK11B (GeneID 984) | 96.7 | 97.2 | inactive
CDK20 (GeneID 23552) | 102 | 98.7 | inactive
RIPK3 (GeneID 11035) | 90.7 | 96.1 | inactive
TAOK2 (GeneID 9344) | 98.8 | 92.8 | inactive

Called active, of those listed so far:
gene knocked down | TRPV4 plateau calcium, % of mock | PAR2 peak calcium, % of mock | call
COMMD3 (GeneID 23412) | 88.1 | 90.9 | active
STK11 (GeneID 6794) | 85.8 | 81.8 | active
PIK3C2B (GeneID 5287) | 88.8 | 87.3 | active
SRP72 (GeneID 6731) | 87.2 | 107 | active
CDK1 (GeneID 983) | 86.3 | 93.5 | active
SIK2 (GeneID 23235) | 70.9 | 79.5 | active
CSNK1E (GeneID 1454) | 87.8 | 92.3 | active
HUNK (GeneID 30811) | 88.3 | 87.8 | active
